In PubChem BioAssay AID1347075 (National Center for Advancing Translational Sciences (NCATS), 2019):
Several values for one entry are separate records, joined by “and”; a condition that tells them apart may be missing. Identical values can stand only once. The whole screen tested about 400,000 compounds, of which about 5,500 (1.4%) were called active. Inconclusive means that the source gave no clear call. Such entries were picked first, then a sample of the others. The call rests on the fitted dose curve; in most records, active means well fitted cell-killing curve with a large enough effect; inconclusive means small, poorly fitted or top-dose-only effect, or effect the other way; inactive means flat fitted curve, though single readings scatter. Where the call is inconclusive, the potency comes from a doubtful curve fit.

Test: qHTS assay for MDR1-selective chemotherapeutics: Primary screen using the parental adenocarcinoma cell KB-3-1; further: nearly all actives have a fitted effect of over 60% in size
Conditions: KB-3-1 viability, CellTiter-Glo ATP luminescence, 72 h; activity change, negative = cytotoxic: at 46.1 µM (top of the series)
Outline: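 Here the drug-naive KB-3-1 line serves as comparator for MDR sub-line selectivity; cells received compound titrations, 72 h at 37 °C, then CellTiter-Glo readout.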
On the % scale 0 is the no-effect control and ±100 the full control effect; potency means the concentration at half of the fitted maximal effect.

Row | Compound | activity change, negative = cytotoxic | Potency
1 | COc1ccc(S(=O)(=O)N2CCC[C@H]2C(=O)N2CCC[C@H]2C(=O)NCc2ccncc2)cc1C | inconclusive: 0.579% | 
2 | O=C(NCCc1ccccc1)c1ccc2c(c1)S(=O)(=O)N=C1CCCCCN12 |  | inactive
3 | CC1=NN(c2ccccc2)C(=O)/C1=C/C=C/c1ccccc1 |  | inconclusive: 29.1 µM [cytotoxic, single point]
4 | O=[N+]([O-])c1ccc(Nc2nc(NCCN3CCOCC3)nc(Nc3ccc(I)cc3)n2)cc1 |  | inconclusive: 20.6 µM [cytotoxic, partial curve, poor fit]
5 | C=CC(=O)Nc1ccc(Nc2ccnc(Nc3ccc(N4CCN(C)CC4)cc3)n2)cc1 |  | inconclusive: 2.31 µM [cytotoxic, full curve]
6 | COc1ccc(/C=C/C(=O)NC2CC3CCC2C3)cc1 (stereo not drawn) | inconclusive: 27.7% | 
7 | CN1/C(=C\C(=O)C[n+]2ccc3ccccc3c2)C(C)(C)c2ccccc21 |  | inconclusive: 0.461 µM [cytotoxic, full curve, poor fit]
8 | Nc1cc2c(cc1[N+](=O)[O-])-c1ccccc1C2=NO |  | inactive
9 | Cc1cc(C(=O)N/N=C2\CCCC(=O)C2)c2ccccc2n1 |  | inactive
10 | Cc1cc(C)c2nc(N3CCC(C(=O)N4CCN(c5ncccn5)CC4)CC3)sc2c1 |  | inactive
11 | Cc1ccc2cc(C(c3nnnn3C3CCCC3)N3CCN(c4ccc(F)cc4)CC3)c(=O)[nH]c2c1 (stereo not drawn) |  | inconclusive: 14.6 µM [cytotoxic, partial curve]
12 | Cc1ccc(C)c(Nc2cc(C(=O)NCCCN(C)C3CCCCC3)c3ccccc3n2)c1 | inconclusive: -35.8% [cytotoxic] | 
13 | CC(=O)N1CCN(S(=O)(=O)c2cccc(C(=O)Nc3ccc(F)c(F)c3)c2)CC1 |  | inconclusive: 29.1 µM [rising, single point]
14 | CCN(CCO)Cc1csc2ccc(Cl)cc12 |  | inactive
15 | Cc1cc(C)n(CCNC(=O)c2ccc3c(c2)OCO3)n1 |  | inconclusive: 20.6 µM [rising, partial curve, poor fit]
16 | O=C(c1ccco1)N1CCN(S(=O)(=O)c2c(Cl)cccc2Cl)CC1 |  | inconclusive: 32.6 µM [cytotoxic, partial curve, poor fit]
17 | CCOC(=O)CN1C(=O)C(O)(C2CCc3ccccc3C2=O)c2ccccc21 (stereo not drawn) |  | inconclusive: 29.1 µM [cytotoxic, single point]
18 | CC(C)(C)C1(O)CC(C(F)(F)F)=NN1C(=O)CCc1ccccc1 (stereo not drawn) |  | inactive
19 | CC(=O)NCCC(=O)Nc1nc(-c2c[nH]c3ccccc23)cs1 |  | inactive
20 | Cc1ccc(CN2CCCn3nc(C(=O)NCc4cc(C)ccc4C)cc3C2=O)cc1 |  | inactive
21 | CN(C)c1ccc(C=c2c3ccccc3n3c2c2ccccc2[n+]3C)cc1 |  | active: 5.17 µM
22 | CCOc1ccccc1Nc1nnc(-c2cc3cc(Cl)ccc3oc2=O)s1 |  | inconclusive: 10.3 µM [cytotoxic, partial curve, poor fit]
23 | COc1cc(OC)cc(C(=O)Nc2ccc3c(c2)OCCO3)c1 |  | inconclusive: 29.1 µM [cytotoxic, single point] and active: 16.4 µM

Row | Compound | activity change, negative = cytotoxic | Potency
24 | O=c1[nH]cnc2c1sc1nc(C(F)F)cc(-c3ccccc3)c12 |  | inconclusive: 8.2 µM [cytotoxic, partial curve]
25 | CC(=O)c1sc(Nc2nc(C)cc(C)n2)nc1C |  | inconclusive: 29.1 µM [cytotoxic, single point]
26 | CCc1cccc(CC)c1NC(=S)NC(C)c1ccccc1 (stereo not drawn) |  | inactive
27 | COc1ccc(N/C(=N/c2nc(C)cc(C)n2)NC(=O)Nc2ccc(Cl)c(Cl)c2)c(OC)c1 |  | inactive
28 | COc1cc(-c2noc(C)c2C#Cc2ccc(N)cc2)cc(OC)c1OC |  | active: 820 nM and inconclusive: 206 nM [cytotoxic, full curve, poor fit]
29 | c1csc(-c2ccc(N3CCOCC3)nn2)c1 |  | inconclusive: 18.4 µM [cytotoxic, single point]
30 | O=C(Nc1ccc(Oc2cccnc2)cc1)c1ccccc1F |  | inconclusive: 29.1 µM [cytotoxic, single point]
31 | O=C(/C=C/c1ccc(N2CCCCC2)c([N+](=O)[O-])c1)c1ccc(S(=O)(=O)N2CCCC2)cc1 |  | inconclusive: 29.1 µM [cytotoxic, single point]
32 | CCOCCCn1c(=NC(=O)c2cccnc2)c(C(=O)OCC)cc2c(=O)n3ccccc3nc21 |  | inconclusive: 16.4 µM [rising, single point]
33 | O=C(OCCN1C(=O)c2cccc3c(N4CCOCC4)ccc(c23)C1=O)c1ccc(Cl)cc1Cl |  | inconclusive: 0.651 µM [cytotoxic, full curve, poor fit]
34 | CCOC(=O)c1ccc(Nc2sc(C(=O)c3cccc([N+](=O)[O-])c3)c(N)c2C#N)cc1 |  | inconclusive: 29.1 µM [cytotoxic, single point]
35 | CC(C)N(CCNC(=O)C1CCCN(c2ncnc3c2nc2n3CCCCC2)C1)Cc1ccccc1 (stereo not drawn) |  | inconclusive: 16.4 µM [cytotoxic, single point]
36 | CCOC(=O)CC1=NN(c2ccccc2)C(=O)/C1=C\c1ccc(OC)cc1OC |  | inactive
37 | COc1ccc2ccccc2c1C1NC(=O)c2ccccc2N1 (stereo not drawn) |  | active: 2.31 µM
38 | OC[C@H]1O[C@@H](c2nc(-c3cccc4ccccc34)no2)[C@H](O)[C@@H]1O |  | inactive
39 | CCOC(=O)c1nc2cc3n(c(C)c-2c1C)C(C)C(C)=C3C (stereo not drawn) |  | inconclusive: 29.1 µM [cytotoxic, single point]
40 | Cc1ccc(C(=O)N2N=C(c3ccc(Br)cc3)CC2c2ccccc2O)cc1 (stereo not drawn) |  | inconclusive: 29.1 µM [cytotoxic, single point]
41 | CCOC(=O)c1ccc(NC(=O)CSc2nc(-c3cccs3)cc(C(F)(F)F)c2C#N)cc1 |  | inconclusive: 29.1 µM [rising, single point]
42 | CC(C)(C)c1ccc(C(=O)/C(C#N)=C/c2cccs2)cc1 |  | inconclusive: 0.326 µM [rising, full curve, poor fit]
43 | COCCN(C(=O)COC(=O)c1ccccc1Cc1ccccc1)c1c(N)n(Cc2ccccc2)c(=O)[nH]c1=O | inconclusive: -55.6% | 
44 | Cc1ccc(NC(=O)N2CCN(Cc3nc4ccc(C)cc4o3)CC2)c(Cl)c1 |  | inactive
45 | O=C1CN(C(=O)COc2ccc(Cl)cc2)C(c2ccc(F)cc2)c2cc(Br)ccc2N1 (stereo not drawn) |  | inconclusive: 29.1 µM [cytotoxic, single point]
46 | O=C1c2ccccc2S(=O)(=O)c2cc(N3CCOCC3)ccc21 |  | inconclusive: 6.51 µM [cytotoxic, full curve, poor fit]

Row | Compound | activity change, negative = cytotoxic | Potency
47 | COc1ccccc1NS(=O)(=O)c1cccc(NC(=O)c2[nH]c(C)c(C(C)=O)c2C)c1 |  | inconclusive: 29.1 µM [cytotoxic, single point]
48 | CCOc1ccccc1N(C)C(=O)c1cn(C)c(=O)c2ccccc12 |  | inactive
49 | COc1cccc(CNC23CC4CC(CC(C4)C2)C3)c1OCc1ccccc1 |  | inconclusive: 16.4 µM [cytotoxic, single point]
50 | CCN(CC(=O)Nc1c(F)cccc1F)C(=O)Cc1sc(C)nc1-c1ccc(F)cc1 |  | inconclusive: 0.231 µM [rising, full curve]
51 | COC(=O)COc1ccc(S(=O)(=O)Nc2ccc3c(c2)OCCO3)cc1Cl |  | inconclusive: 15.8 µM [cytotoxic, single point]
52 | CCCn1c(N)c(C(=O)CN(C)CC(=O)Nc2cc(C)ccc2C)c(=O)[nH]c1=O |  | inconclusive: 20.6 µM [cytotoxic, partial curve, poor fit]
53 | CCCCN1C(=O)C(CC(=O)NCc2cccc3ccccc23)CC(C(=O)N2CCCCCC2)=C1C (stereo not drawn) |  | inconclusive: 23.1 µM [cytotoxic, single point]
54 | O=C(c1c[nH]c(C(=O)N2CCN(c3ccccc3F)CC2)c1)c1cccc(Cl)c1Cl |  | inconclusive: 16.4 µM [cytotoxic, single point]
55 | CCN(c1ccccc1)c1nc(Cl)nc2c1cnn2C |  | inactive
56 | CC1CCC(NC(=O)Cn2c3c(c(-c4ccccc4Cl)cc2=O)CCC3)CC1 (stereo not drawn) |  | inactive
57 | CCOc1ccccc1NC(=O)c1ccccc1NC(=O)c1ccco1 |  | inactive
58 | Cc1c(C(=O)NCC(c2ccco2)N(C)C)oc2c(Cl)cccc12 (stereo not drawn) |  | inconclusive: 29.1 µM [rising, single point]
59 | Cc1ccc(S(=O)(=O)NCc2ccccc2)cc1C(=O)NCc1ccncc1 |  | inactive
60 | O=C(Nc1cccc(/C=C/c2nc3ccccc3c(=O)[nH]2)c1)c1ccccc1Cl |  | inconclusive: 29.1 µM [cytotoxic, single point]
61 | Cc1ccc(-c2cc3c(n2-c2ccc(F)cc2)CC(C)(C)CC3=O)cc1 |  | inactive
62 | C=CCNC(=S)Nc1ccccc1 |  | inactive
63 | O=C(c1cc(-c2cccc(O)c2)on1)N1CCN(C(c2ccccc2)c2ccccc2)CC1 |  | active: 18.4 µM
64 | COc1ccc(CN2CCC(n3nccc3NC(=O)CCCc3ccccc3)CC2)cc1C |  | inconclusive: 29.1 µM [cytotoxic, single point]
65 | COC(=O)c1ccc(CNC(=O)C(NC(=O)c2ccco2)C(C)C)cc1 (stereo not drawn) |  | inconclusive: 18.4 µM [rising, single point]
66 | Cc1cccc(NC(=O)CSc2nc3ccccc3c3nc(CCc4c(C)n[nH]c4C)nn23)c1 |  | inconclusive: 29.1 µM [cytotoxic, single point]
67 | CC(C)CC(=O)N1CCN(S(=O)(=O)c2ccc3ccccc3c2)CC1 |  | inconclusive: 18.4 µM [cytotoxic, single point]
68 | COc1ccc(SC[C@H](Cc2ccccc2)N2CCN(CCc3ccccc3)CCC2=O)cc1 |  | inconclusive: 20.6 µM [cytotoxic, single point]
